The text below walks through data of article PMC7819943, “Rice protein-binding microarrays: a tool to detect cis-acting elements near promoter regions in rice”.

This is one part of the list.

The assay deals with T1, OsSMF1 (Oryza sativa, UniProt Q6ZLB0 1-436).
T1 sequence: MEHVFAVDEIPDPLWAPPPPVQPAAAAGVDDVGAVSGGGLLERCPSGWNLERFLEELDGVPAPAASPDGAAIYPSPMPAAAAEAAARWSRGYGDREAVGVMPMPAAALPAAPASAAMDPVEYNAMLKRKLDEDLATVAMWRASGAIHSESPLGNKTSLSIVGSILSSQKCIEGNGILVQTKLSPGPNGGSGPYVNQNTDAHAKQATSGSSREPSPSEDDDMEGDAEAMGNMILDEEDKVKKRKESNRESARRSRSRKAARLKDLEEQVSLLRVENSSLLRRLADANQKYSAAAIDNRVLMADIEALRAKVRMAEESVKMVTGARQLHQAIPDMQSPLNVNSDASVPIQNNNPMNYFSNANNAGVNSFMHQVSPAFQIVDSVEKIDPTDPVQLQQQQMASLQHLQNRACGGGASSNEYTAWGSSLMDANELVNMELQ
In words: protein-binding microarray (RPBM); PBS, 2% BSA, 51.3 ng/ul salmon testes DNA, 50 uM zinc acetate, 200 nM TF, 25 C, 1 h; high values mean tight binding. The note with it: protein: recombinant; tags: N-terminal polyhistidine and DsRed monomer fusion (pET32a); chain copies: 2; label: CyDye5-dUTP incorporated in the synthesized complementary strand; 3' TTTTT single-stranded linker to array surface; dsDNA, one strand shown. The essentials:
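Transcription factors were each fused at the N-terminus to a polyhistidine tag plus DsRed and expressed in E. coli BL21-CodonPlus before Ni–NTA purification. Binding to a double-stranded custom Agilent array was carried out with 200 nM protein at 25 °C for 1 h in PBS, 2% BSA, salmon testes DNA and 50 µM zinc acetate. The binding signal is per-feature fluorescence intensity, in arbitrary units, on an Axon 4000B scanner.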
“CGCCGTCGACACGTGGGGCCCCTCCTCCCGCCGCCGCCGCCGGAGTCACCTAGTGCAG”: the binding signal is 9020 fluorescence intensity (a.u.).

As to “CAATCCGCCGCCGCCACGCGTCACCGAAAGCCGTCGCCGACGGAGTCACCTAGTGCAG”, the binding signal is 7810 fluorescence intensity (a.u.).

With “GGTGGGCGGAGTGGGAGGGGAGGCATCGGCGCCTCGGTGGCGGAGTCACCTAGTGCAG”, the binding signal was 3620 fluorescence intensity (a.u.).

For the sequence “CGCCTCCATGGTTTTGCGACTTTGCCGTCATTGCTTGATACGGAGTCACCTAGTGCAG”, the binding signal is 3680 fluorescence intensity (a.u.).

Take “GAGCCGCTCAGCAGCAACCCCTCCTTCATCGGACTCCACGCGGAGTCACCTAGTGCAG”: the binding signal was 38200 fluorescence intensity (a.u.).

Turning to “GATGTCATATATCTGGTTTTGTGGTTGGGGTCAATGACAACGGAGTCACCTAGTGCAG”, the binding signal was 33500 fluorescence intensity (a.u.).

“TTTTAGTATATTTATATACTTTGTGCAAGGTGACATGTACCGGAGTCACCTAGTGCAG”: the binding signal is 3440 fluorescence intensity (a.u.).

Take “CCAAGATCCTGATAAAGTTCAGTCATCACCATCTCTATAGCGGAGTCACCTAGTGCAG”: the binding signal is 4340 fluorescence intensity (a.u.).

Turning to “AGGTTGGCATTGCAACGTCATCGATGATGAAATCAAACGCCGGAGTCACCTAGTGCAG”, the binding signal was 9370 fluorescence intensity (a.u.).

For “CTGGTAGGATTGCTGCTTGCTTTGCCTTCACGTCATTATCCGGAGTCACCTAGTGCAG”, the binding signal was 3350 fluorescence intensity (a.u.).

Turning to “GGCTATCGGTGGGTGGGTGGGGTGTACTACTCCCCTATAACGGAGTCACCTAGTGCAG”, the binding signal was 5100 fluorescence intensity (a.u.).

Regarding “CGCTGGGTCACCAACCTTCGCTGCCACATCGTCTCTCCTCCGGAGTCACCTAGTGCAG”, the binding signal was 5900 fluorescence intensity (a.u.).

As to “CAGGGGAGGGGATCCTGGTGAGCATCCACATCACATCCTCCGGAGTCACCTAGTGCAG”, the binding signal is 5610 fluorescence intensity (a.u.).

On to “AGAGAGGGAAGGGAGGGAGGGAGGGAGGAGGGAGAGATCTCGGAGTCACCTAGTGCAG”, for which the binding signal is 6770 fluorescence intensity (a.u.).

Take “ATTGAAAATTTTGTTTGAGTGCACATCGTGTGCATTTTATCGGAGTCACCTAGTGCAG”: the binding signal is 8920 fluorescence intensity (a.u.).

On to “CCTCTTGCCACTACTATTTCTAGTAGTCGTGTATCATCATCGGAGTCACCTAGTGCAG”, for which the binding signal is 4340 fluorescence intensity (a.u.).

Turning to “ACCGGGTCGCGCGCGTCGTTGAAACGTCACACCTAGCTAACGGAGTCACCTAGTGCAG”, the binding signal was 4280 fluorescence intensity (a.u.).

Regarding “CCGGCCCAATACAACCCGTTCGTGGCAACCCTATTCCAGCCGGAGTCACCTAGTGCAG”, the binding signal is 4850 fluorescence intensity (a.u.).

“CGATTGCCACATCTACACCTACGTATACAAATACACAAATCGGAGTCACCTAGTGCAG”: the binding signal is 5330 fluorescence intensity (a.u.).

Consider “GCGAACAGTGCACACGTCCGCCACTTCGTCCACTCGCGCCCGGAGTCACCTAGTGCAG”, for which the binding signal is 4700 fluorescence intensity (a.u.).

Turning to “GAAACCCTAGCCGCCACCACTCCCGTGACGGTGCGTCGCTCGGAGTCACCTAGTGCAG”, the binding signal was 3650 fluorescence intensity (a.u.).

“CATTAGGCCCACGTGTCATTGACCCAAGTCAGAGGTTAATCGGAGTCACCTAGTGCAG”: the binding signal is 9260 fluorescence intensity (a.u.).

In the case of “GTATTTGTTGTCATCGTTTTCTTCGTGTCCTTTCATGATCCGGAGTCACCTAGTGCAG”, the binding signal was 4340 fluorescence intensity (a.u.).

Regarding “ATAAATCGATTGCGCAACTGACGTACGGAACATATATATTCGGAGTCACCTAGTGCAG”, the binding signal was 7460 fluorescence intensity (a.u.).

For “TGTTGACACTTTGGTTTGTTGGTTGGTGACGCGTTGTTGTCGGAGTCACCTAGTGCAG”, the binding signal is 5460 fluorescence intensity (a.u.).

Turning to “ATCCAAGTCGCCGTGGTCGTTTGGGCCTACGTGGGCTTAGCGGAGTCACCTAGTGCAG”, the binding signal is 4210 fluorescence intensity (a.u.).

With “TTGCACCAATCATGATTGCGCATCGCTGACCGAATGGTTTCGGAGTCACCTAGTGCAG”, the binding signal is 3940 fluorescence intensity (a.u.).

For “CTACGCCCACCCATCCACTCGCACCCCGCGCCGCACCAACCGGAGTCACCTAGTGCAG”, the binding signal is 24500 fluorescence intensity (a.u.).

“CTTTTGATCCACGTTTGAACTATATATTCACATAATACAACGGAGTCACCTAGTGCAG”: the binding signal was 3410 fluorescence intensity (a.u.).

Consider “GTTCGCCATTGCCACCTCACTGCTCACGCTACCGCCTCTACGGAGTCACCTAGTGCAG”, for which the binding signal was 5080 fluorescence intensity (a.u.).

For “AAATTGGGTGCCATGTCAGTAATTTTATGATGTGGCATGACGGAGTCACCTAGTGCAG”, the binding signal was 14200 fluorescence intensity (a.u.).

Turning to “CGCAGATTCCTCCCTCCGTCGATCGCCCCTTCATCACCCACGGAGTCACCTAGTGCAG”, the binding signal was 3280 fluorescence intensity (a.u.).

“CGCCCCGCTGCTCGTCGAGCAAAACGTCTCGCCCTCTCCACGGAGTCACCTAGTGCAG”: the binding signal was 5540 fluorescence intensity (a.u.).

Turning to “TGTTTATGAAGTGACATGTCACATATTAATCTATCATACTCGGAGTCACCTAGTGCAG”, the binding signal is 3900 fluorescence intensity (a.u.).

On to “CACGAGCACGACACGACACGTTATCCATCCCGCCGCCGAACGGAGTCACCTAGTGCAG”, for which the binding signal is 4650 fluorescence intensity (a.u.).

Consider “TCGCCGATGGCCACGGCCACTACCCACCAGTCGTCATCATCGGAGTCACCTAGTGCAG”, for which the binding signal was 4710 fluorescence intensity (a.u.).

For the sequence “CCGCCACGTAGGTACCACGTCAACGCCACGTGTAACAAAGCGGAGTCACCTAGTGCAG”, the binding signal is 37100 fluorescence intensity (a.u.).

With “CAAGTTGTTTAGGGCTCTTTTGGAACGCATGATTCTGAAACGGAGTCACCTAGTGCAG”, the binding signal was 7240 fluorescence intensity (a.u.).

As for “CTCCATCACTGCGCCACATGCAGCCTGCCGTTTCGAAAACCGGAGTCACCTAGTGCAG”, the binding signal was 3280 fluorescence intensity (a.u.).

With “TTTACAAATTTTGTAAGGTGACGCTGACACATGAAACCAACGGAGTCACCTAGTGCAG”, the binding signal is 5790 fluorescence intensity (a.u.).

As to “GCCACCTAAGCGACACGTCGACGACACGTGGGACGAAGACCGGAGTCACCTAGTGCAG”, the binding signal was 20600 fluorescence intensity (a.u.).

On to “TCCATCAATGCAACTAACGGACGTGTCCTCTCTCGTCCACCGGAGTCACCTAGTGCAG”, for which the binding signal is 4180 fluorescence intensity (a.u.).
